{"source": "PubChem BioAssay AID493014", "about": "(National Center for Advancing Translational Sciences (NCATS), 2011)", "note": "The whole screen tested about 340,000 compounds, of which about 170 (0.05%) were called active. Inconclusive results, whose numbers are uncertain, are shown with a selection of clear calls. The call rests on the fitted dose curve; in most records, active means well fitted inhibition curve with a large enough effect in the signal ratio, with a control signal flat (not every such curve was filed as active); inconclusive means small, poorly fitted or top-dose-only effect, or effect the other way, or a change in a side signal; inactive means flat fitted curve, though single readings scatter; the % refers to the signal ratio. Potencies beside an inconclusive call are fits to weak or partial responses and may not hold up. Potency means the concentration at half of the fitted maximal effect.", "data": [{"assay": "qHTS Assay to Find Inhibitors of Chronic Active B-Cell Receptor Signaling;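 on activity change, negative = inhibition: plate controls were basal doxycycline-induced cells for no effect and cells given 10 µM MG132 for full effect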", "settings": "ABC-DLBCL IkBa-CBG/CBR reporter, luminescence ratio (green luciferase fused to IkBa over red control in TMD8 lymphoma cells), 4 h; activity change, negative = inhibition: at 46.1 µM (top of the series)", "in_short": "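Concentration-response series (up to 46 uM) were applied to TMD8 dual-reporter cells for 4 h at 37C with doxycycline. Green/red ratio, after filter-overlap correction, defined %Activity; red signal alone was normalised to basal cells and zero luminescence.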", "values": [{"compound": "COc1ccc2c(c1)c(CC(=O)NCc1cc([N+](=O)[O-])ccc1O)c(C)n2C(=O)c1ccc(Cl)cc1", "Potency": "inconclusive: 15.8 µM [falling, partial curve, poor fit]"}, {"compound": "CN(C)c1ccc(P(=O)(OCc2ccccc2)C(O)c2ccccc2F)cc1", "note": "(configuration not stated)", "activity change, negative = inhibition": "inconclusive: -6.01%"}, {"compound": "COc1ccc(CNC(=O)c2cc(-c3ccccc3OC)on2)cc1", "Potency": "inconclusive: 35.5 µM [rising, single point]"}, {"compound": "COc1ccc(C(=O)/C=C/N(C)C)cc1OC", "activity change, negative = inhibition": "inconclusive: -8.45%"}, {"compound": "O=C(O)COc1ccccc1/C=C1\\C(=O)Nc2ccc(Br)cc21", "activity change, negative = inhibition": "inactive"}, {"compound": "C/C=C/c1ccc(Oc2nnnn2-c2ccc(C(N)=O)cc2)c(OC)c1", "activity change, negative = inhibition": "inconclusive: 3.77%"}, {"compound": "O=C(Nc1ccccc1N1CCCC1)c1ccc(N2CCCC2=O)cc1", "Potency": "inconclusive: 5.8 µM [falling, single point]"}, {"compound": "Cn1c(Cl)c(C(=O)Nc2ccc(Cl)cc2)c2ccccc21", "activity change, negative = inhibition": "inconclusive: -0.142%"}, {"compound": "Cc1ccc(N(CC(=O)NCc2cccs2)S(=O)(=O)c2cccs2)cc1", "activity change, negative = inhibition": "inconclusive: 19.9%"}, {"compound": "O=C1C2C3C=CC(C4CC34)C2C(=O)N1c1cc(Cl)ccn1", "note": "(configuration not stated)", "activity change, negative = inhibition": "inconclusive: 8.75%"}, {"compound": "CN(C)c1nc(N/N=C/c2ccccc2O)nc(Nc2ccc(F)cc2)n1", "Potency": "inconclusive: 31.6 µM [cytotoxic, single point]"}, {"compound": "S=c1nc(-c2ccccc2)c(-c2ccccc2)n[nH]1", "activity change, negative = inhibition": "inconclusive: -0.0697%"}, {"compound": "Cc1ccc(CN2CCN(/N=C/C=C/c3ccccc3[N+](=O)[O-])CC2)cc1", "activity change, negative = inhibition": "inconclusive: -14.7%"}, {"compound": "Cc1cccc(CC(C)NC(=O)c2cc(COc3ccc(C)c(C)c3)on2)n1", "note": "(configuration not stated)", "Potency": "inconclusive: 25.1 µM [falling, single point]"}, {"compound": "COc1ccc2cc(C(C)C(=O)OC(C)C)ccc2c1", "note": "(configuration not stated)", "activity change, negative = inhibition": "inconclusive: 13.9%"}, {"compound": "COc1cccc(CNC(C)C(=O)Nc2ccc3c(c2)OCCO3)c1", "note": "(configuration not stated)", "Potency": "inconclusive: 11.2 µM [falling, single point]"}, {"compound": "CC(=O)Nc1ccc(S(=O)(=O)c2ccc([N+](=O)[O-])cc2)cc1", "activity change, negative = inhibition": "inactive"}, {"compound": "Cn1c(NCc2ccccc2O)nc2ccccc21", "activity change, negative = inhibition": "inactive"}, {"compound": "Cc1nc(-c2ccc(C(=O)Nc3cccc(F)c3)cc2)cs1", "Potency": "inconclusive: 15.8 µM [falling, partial curve]"}, {"compound": "O=c1[nH]c(=S)[nH]c2sccc12", "activity change, negative = inhibition": "inactive"}, {"compound": "COc1ccc2oc(=O)c(C(=O)Nc3cccc(C)c3)cc2c1", "Potency": "inconclusive: 35.5 µM [falling, single point]"}, {"compound": "CCOc1ccc(S(=O)(=O)N2CCN(C(=O)CCC(=O)N3CCOCC3)CC2)cc1", "activity change, negative = inhibition": "inactive"}, {"compound": "Cc1csc(NC(=O)/C=C/c2ccco2)n1", "Potency": "inconclusive: 20.6 µM [falling, single point]"}, {"compound": "S=C(Nc1cccc(Cl)c1)Nc1ccccc1Oc1ccccc1", "activity change, negative = inhibition": "inactive"}, {"compound": "O=C(COC(=O)c1ccc(-n2cnnn2)cc1)c1ccc(Br)cc1", "Potency": "inconclusive: 13 µM [falling, partial curve]"}, {"compound": "C/C(CC(=O)NC1CCCCC1)=N\\NC(=O)c1ccc(Br)cc1", "activity change, negative = inhibition": "inconclusive: -2.3%"}, {"compound": "COCCn1c(=O)[nH]c2cc(C(=O)OC)ccc2c1=O", "activity change, negative = inhibition": "inconclusive: 5.31%"}, {"compound": "Fc1ccccc1NC(=S)N1CCN(Cc2ccccc2)CC1", "activity change, negative = inhibition": "inconclusive: 5.7%"}, {"compound": "CCCCN(C(=O)c1cc2c(s1)CCCC2)c1c(N)n(CCC)c(=O)[nH]c1=O", "activity change, negative = inhibition": "inconclusive: 5.74%"}, {"compound": "COC(=O)CCC(=O)c1oc2ccc(Br)cc2c1N", "activity change, negative = inhibition": "inconclusive: 9.84%"}, {"compound": "CCOC(=O)CCn1nc(-c2ccc(C)cc2)c2ccccc2c1=O", "activity change, negative = inhibition": "inactive"}, {"compound": "CC(C)(C)c1ccc(C(=O)Nc2cccc(S(=O)(=O)NC3=NCCC3)c2)cc1", "activity change, negative = inhibition": "inconclusive: -13.2%"}, {"compound": "COc1cccc(/C=c2\\s/c(=C\\C(=O)C(C)(C)C)[nH]c2=O)c1", "activity change, negative = inhibition": "inactive"}, {"compound": "Cc1ncc(CSCC(=O)Nc2cc(C(F)(F)F)ccc2Cl)c(CO)c1O", "activity change, negative = inhibition": "inconclusive: -0.118%"}, {"compound": "COc1ccc2cc(C(=O)Nc3ccc(O)cc3)sc(=O)c2c1OC", "Potency": "inconclusive: 18.4 µM [falling, partial curve]"}, {"compound": "Cc1cc(-c2ccccc2)n(-c2ccc(C(=O)N3CCN(c4ncccn4)CC3)cc2)n1", "activity change, negative = inhibition": "inconclusive: 1.05%"}, {"compound": "O=C(Nc1cccc(Cl)c1)c1ccc2c(=O)n3c(nc2c1)CCCCC3", "activity change, negative = inhibition": "inconclusive: 1.09%"}, {"compound": "Nc1nc(N)nc(-c2ccccc2)n1", "activity change, negative = inhibition": "inconclusive: -0.92%"}, {"compound": "Cc1nonc1C(=O)N/N=C/c1cccc(O)c1", "activity change, negative = inhibition": "inconclusive: -17.7%"}, {"compound": "O=S(=O)(NCC1CCCO1)c1ccc(S(=O)(=O)N2CCc3ccccc3C2)cc1", "note": "(configuration not stated)", "activity change, negative = inhibition": "inconclusive: 5.42%"}, {"compound": "CCC(C)N(C(=O)COC(=O)/C=C/c1ccc(O)c(OC)c1)C1CCS(=O)(=O)C1", "note": "(configuration not stated)", "activity change, negative = inhibition": "inconclusive: -20.9%"}, {"compound": "O=C(CSc1nc(=O)n2ccccc2n1)NCc1ccccc1Cl", "Potency": "inconclusive: 16.4 µM [falling, single point]"}, {"compound": "COc1ccc(C2(O)CN(c3ccccc3)C3=[N+]2CCS3)cc1OC", "note": "(configuration not stated)", "activity change, negative = inhibition": "inactive"}, {"compound": "Cc1cc(C)c(CN2CCC(n3nccc3NC(=O)c3ccccc3Cl)CC2)cc1C", "activity change, negative = inhibition": "inactive"}, {"compound": "Cc1ccnc(Sc2ncccc2[N+](=O)[O-])n1", "activity change, negative = inhibition": "inconclusive: -2.53%"}, {"compound": "O=C(Nc1ccc2[nH]c(=S)sc2c1)c1ccccc1", "activity change, negative = inhibition": "inactive"}, {"compound": "O=c1[nH]c(=O)n(Cc2ccccc2)c2c1C(C(F)(F)F)(C(F)(F)F)N=C(c1ccco1)N2", "activity change, negative = inhibition": "inactive"}, {"compound": "O=C(NCC1OCCCN1S(=O)(=O)c1cc(F)ccc1F)C(=O)NC1CCCCCC1", "note": "(configuration not stated)", "Potency": "inconclusive: 22.4 µM [falling, single point]"}, {"compound": "NNc1nc(-c2ccccc2Cl)nc2ccccc12", "activity change, negative = inhibition": "inactive"}, {"compound": "O=C(NCc1nnc2c(C(F)(F)F)cc(Cl)cn12)c1ccc2c(c1)OCO2", "Potency": "inconclusive: 15.8 µM [falling, single point]"}, {"compound": "COc1ccccc1-n1cnnc1SCC(=O)Nc1cc(C(C)(C)C)nn1-c1ccccc1", "activity change, negative = inhibition": "inconclusive: -0.962%"}, {"compound": "CCOC(=O)C1CCN(c2c(C(=O)c3ccccc3)cnc3ccc(Cl)cc23)CC1", "activity change, negative = inhibition": "inconclusive: 2.9%"}, {"compound": "COC(=O)c1ccc(OCC(O)Cn2nnc3ccccc32)cc1", "note": "(configuration not stated)", "activity change, negative = inhibition": "inactive"}, {"compound": "CC1(C)Cc2ccccc2/C(=C/C(=O)c2ccccc2)N1", "activity change, negative = inhibition": "inconclusive: 1.73%"}, {"compound": "CC[C@@]12C(=O)N(c3ccc(C)cc3)C(=O)N1[C@H](c1ccc(Br)cc1)[C@@H]1C(=O)N(C(C)(C)C)C(=O)[C@@H]12", "activity change, negative = inhibition": "inactive"}, {"compound": "Oc1c(I)cc(I)c2cccnc12", "activity change, negative = inhibition": "inactive"}, {"compound": "Clc1cccc(Cl)c1CSc1nnc(-c2ccncc2)s1", "activity change, negative = inhibition": "inactive"}, {"compound": "CCS(=O)(=O)Nc1cccc(-c2cc(-c3ccccc3)c3cc(C)ccc3n2)c1", "activity change, negative = inhibition": "inconclusive: 18.5%"}, {"compound": "Cc1cc(C)c(C#N)c(SCc2nc3ccccc3c(=O)[nH]2)n1", "activity change, negative = inhibition": "inactive"}, {"compound": "Cc1csc(NC(=O)CSCC(=O)O)c1-c1nc2ccccc2s1", "activity change, negative = inhibition": "inconclusive: -7.83%"}, {"compound": "NS(=O)(=O)c1ccc(NC(=O)c2ccc(F)cc2F)c(NC(=O)c2ccc(F)cc2F)c1", "activity change, negative = inhibition": "inconclusive: -11.5%"}, {"compound": "COc1cccc(CC2(CO)CCCN(Cc3ccccc3Cl)C2)c1", "note": "(configuration not stated)", "activity change, negative = inhibition": "inactive"}, {"compound": "CC(C)c1ccc(/C=N/NC(=O)c2cccc(Cl)c2)cc1", "activity change, negative = inhibition": "inconclusive: -17%"}, {"compound": "Cc1ccc(CN2C(=O)C[C@@H](NC(=O)OCC3c4ccccc4-c4ccccc43)C/C=C\\C2c2ccc(C)cc2)cc1", "note": "(some centres not stated)", "activity change, negative = inhibition": "inconclusive: -5.38%"}, {"compound": "O=C(CSCC(=O)Nc1ccccc1)N/N=C/c1c(O)ccc2ccccc12", "Potency": "inconclusive: 15.8 µM [falling, single point]"}, {"compound": "C=CCn1c(=O)c(C(=O)Nc2ccccc2S(N)(=O)=O)c(O)c2ccccc21", "Potency": "inconclusive: 25.1 µM [falling, single point]"}, {"compound": "CCCC(=O)Nc1nc2ccc(S(=O)(=O)N3CCCCC3)cc2s1", "Potency": "inconclusive: 3.26 µM [falling, partial curve, poor fit]"}, {"compound": "CCOC(=O)Nc1ccc(Oc2ccccc2)cc1", "activity change, negative = inhibition": "inactive"}, {"compound": "O=C(CSc1ccc2ccccc2n1)c1ccc2c(c1)OCO2", "Potency": "inconclusive: 0.58 µM [falling, full curve]"}, {"compound": "O=C(/C(N=Nc1cccc([N+](=O)[O-])c1)=C(/O)c1ccc(Br)cc1)C(F)(F)F", "activity change, negative = inhibition": "inactive"}, {"compound": "CCCNC(=O)c1ccc2c(c1)N(Cc1cccc(C)c1)C(=O)c1ccccc1S2", "activity change, negative = inhibition": "inconclusive: -10.6%"}, {"compound": "COc1cc(C(=O)N(C)CC(=O)Nc2cccc(F)c2)ccc1OCc1ccccc1", "Potency": "inconclusive: 11.6 µM [rising, partial curve, poor fit]"}, {"compound": "CC1CC(Nc2ccccc2)c2ccccc2N1C(=O)c1ccco1", "note": "(configuration not stated)", "activity change, negative = inhibition": "inconclusive: -18.7%"}, {"compound": "O=C(CSC1=NCCS1)N1CCN(c2ccc(Cl)cc2)CC1", "Potency": "inconclusive: 2.51 µM [falling, partial curve, poor fit]"}, {"compound": "CCC(C)(C)n1nnnc1CN(Cc1cc2cc(OC)ccc2[nH]c1=O)C1CCCC1", "activity change, negative = inhibition": "inconclusive: -0.415%"}, {"compound": "Cc1ccc(S(=O)(=O)c2ccccc2)cc1S", "Potency": "inconclusive: 8.91 µM [falling, partial curve]"}, {"compound": "C=C(C)C1CC=C(CN2CCN(Cc3ccccc3)CC2)CC1", "note": "(configuration not stated)", "activity change, negative = inhibition": "inconclusive: -0.197%"}, {"compound": "C1CSC2(N1)C1CC3CC2CC(C1)C31NCCS1", "note": "(configuration not stated)", "activity change, negative = inhibition": "inconclusive: -11.8%"}, {"compound": "CCC(=O)c1cc(F)c(N2CCN(S(=O)(=O)c3ccccc3)CC2)cc1C", "activity change, negative = inhibition": "inconclusive: -28.9%"}, {"compound": "COC(=O)c1ccc2[nH]c3cccc(/C(=C/c4ccccc4)c4ccccc4)c3c2c1", "activity change, negative = inhibition": "inconclusive: 29.9%"}, {"compound": "Cc1cc2nnc(SCC(=O)N3C(C)CCCC3C)n2c(N)n1", "note": "(configuration not stated)", "activity change, negative = inhibition": "inconclusive: 15%"}, {"compound": "COc1ccc(Cl)cc1NC(=O)C(C)OC(=O)Cn1cc(C(F)(F)F)ccc1=O", "note": "(configuration not stated)", "activity change, negative = inhibition": "inconclusive: 3.82%"}]}]}
